# The supplement of paper PMC11438910
# The list shows a part of the results. The signal is at background level for most entries.
# B1: 4-173.2 (protein)
# chain 1: QLQLQESGPGLVKPSETLSLTCAVSGGSINSNYWSWIRQPPGKGLDWIGRISGSGGSTDYNPSLKSRVTISTDTSKTQFSLKLRSVTAADTAVYYCGRGSYQIDYWGQGILVTVSS
# chain 2: QAALTQPPSMSGSPGQSVTISCTGTSSDIGGYNRVSWYQQYPGKAPKLMIYEVSKRPSGVSDRFSGSKSGNTASLTISGLQAADEADYYCSSYAGSKALFGGGTRLTVL
# Assays:
# Test in all cases: fluorescence intensity of antibody binding to polysaccharide-coupled beads; higher = stronger binding
# [1] = molecular target: pneumococcal polysaccharide Pn11A
# [2] = molecular target: pneumococcal polysaccharide Pn11B
# [3] = molecular target: pneumococcal polysaccharide Pn11C
# [4] = molecular target: pneumococcal polysaccharide Pn11D
# [5] = molecular target: pneumococcal polysaccharide Pn11F
# [6] = molecular target: pneumococcal polysaccharide Pn12A
# [7] = molecular target: pneumococcal polysaccharide Pn12B
# [8] = molecular target: pneumococcal polysaccharide Pn12F
# [9] = molecular target: pneumococcal polysaccharide Pn13
# [10] = molecular target: pneumococcal polysaccharide Pn14
# [11] = molecular target: pneumococcal polysaccharide Pn15A
# [12] = molecular target: pneumococcal polysaccharide Pn15B
# [13] = molecular target: pneumococcal polysaccharide Pn15C
# [14] = molecular target: pneumococcal polysaccharide Pn15F
# [15] = molecular target: pneumococcal polysaccharide Pn16A
# [16] = molecular target: pneumococcal polysaccharide Pn16F
# [17] = molecular target: pneumococcal polysaccharide Pn17A
# [18] = molecular target: pneumococcal polysaccharide Pn17F
# [19] = molecular target: pneumococcal polysaccharide Pn18A
# [20] = molecular target: pneumococcal polysaccharide Pn18B
# [21] = molecular target: pneumococcal polysaccharide Pn18C
# [22] = molecular target: pneumococcal polysaccharide Pn18F
# [23] = molecular target: pneumococcal polysaccharide Pn19A
# [24] = antibody concentration 81.7561 ng/mL
# [25] = antibody concentration 437.17 ng/mL
# [26] = antibody concentration 2337.65 ng/mL
# [27] = antibody concentration 12500 ng/mL
# [28] = antibody concentration 0.1 ng/mL
# [29] = antibody concentration 0.534724 ng/mL
# [30] = antibody concentration 2.8593 ng/mL
# [31] = antibody concentration 15.2894 ng/mL
binder,measurement,setting,value
B1,fluorescence intensity,[1]; [24],28.8 MFI
same,fluorescence intensity,[1]; [25],34 MFI
same,fluorescence intensity,[1]; [26],39.2 MFI
same,fluorescence intensity,[1]; [27],52 MFI
same,fluorescence intensity,[2]; [28],29 MFI
same,fluorescence intensity,[2]; [29],25 MFI
same,fluorescence intensity,[2]; [30],23 MFI
same,fluorescence intensity,[2]; [31],26.5 MFI
same,fluorescence intensity,[2]; [24],25.8 MFI
same,fluorescence intensity,[2]; [25],26 MFI
same,fluorescence intensity,[2]; [26],32 MFI
same,fluorescence intensity,[2]; [27],44.5 MFI
same,fluorescence intensity,[3]; [28],22.8 MFI
same,fluorescence intensity,[3]; [29],23 MFI
same,fluorescence intensity,[3]; [30],21 MFI
same,fluorescence intensity,[3]; [31],19 MFI
same,fluorescence intensity,[3]; [24],23.5 MFI
same,fluorescence intensity,[3]; [25],22.5 MFI
same,fluorescence intensity,[3]; [26],40.5 MFI
same,fluorescence intensity,[3]; [27],262 MFI
same,fluorescence intensity,[4]; [28],23 MFI
same,fluorescence intensity,[4]; [29],22.5 MFI
same,fluorescence intensity,[4]; [30],22 MFI
same,fluorescence intensity,[4]; [31],22.5 MFI
same,fluorescence intensity,[4]; [24],23 MFI
same,fluorescence intensity,[4]; [25],23.5 MFI
same,fluorescence intensity,[4]; [26],34 MFI
same,fluorescence intensity,[4]; [27],128 MFI
same,fluorescence intensity,[5]; [28],12.5 MFI
same,fluorescence intensity,[5]; [29],14.2 MFI
same,fluorescence intensity,[5]; [30],15 MFI
same,fluorescence intensity,[5]; [31],15 MFI
same,fluorescence intensity,[5]; [24],14 MFI
same,fluorescence intensity,[5]; [25],15.5 MFI
same,fluorescence intensity,[5]; [26],16.5 MFI
same,fluorescence intensity,[5]; [27],29 MFI
same,fluorescence intensity,[6]; [28],14 MFI
same,fluorescence intensity,[6]; [29],13.5 MFI
same,fluorescence intensity,[6]; [30],14.5 MFI
same,fluorescence intensity,[6]; [31],15.2 MFI
same,fluorescence intensity,[6]; [24],14.2 MFI
same,fluorescence intensity,[6]; [25],16 MFI
same,fluorescence intensity,[6]; [26],20.5 MFI
same,fluorescence intensity,[6]; [27],46 MFI
same,fluorescence intensity,[7]; [28],16 MFI
same,fluorescence intensity,[7]; [29],15 MFI
same,fluorescence intensity,[7]; [30],15 MFI
same,fluorescence intensity,[7]; [31],16 MFI
same,fluorescence intensity,[7]; [24],16.5 MFI
same,fluorescence intensity,[7]; [25],17 MFI
same,fluorescence intensity,[7]; [26],20 MFI
same,fluorescence intensity,[7]; [27],48.5 MFI
same,fluorescence intensity,[8]; [28],18.8 MFI
same,fluorescence intensity,[8]; [29],19.5 MFI
same,fluorescence intensity,[8]; [30],18.5 MFI
same,fluorescence intensity,[8]; [31],18.5 MFI
same,fluorescence intensity,[8]; [24],19.2 MFI
same,fluorescence intensity,[8]; [25],20 MFI
same,fluorescence intensity,[8]; [26],23.5 MFI
same,fluorescence intensity,[8]; [27],61.8 MFI
same,fluorescence intensity,[9]; [28],20 MFI
same,fluorescence intensity,[9]; [29],19 MFI
same,fluorescence intensity,[9]; [30],18.5 MFI
same,fluorescence intensity,[9]; [31],20.5 MFI
same,fluorescence intensity,[9]; [24],18.5 MFI
same,fluorescence intensity,[9]; [25],19.5 MFI
same,fluorescence intensity,[9]; [26],22.5 MFI
same,fluorescence intensity,[9]; [27],45.8 MFI
same,fluorescence intensity,[10]; [28],14 MFI
same,fluorescence intensity,[10]; [29],14 MFI
same,fluorescence intensity,[10]; [30],15 MFI
same,fluorescence intensity,[10]; [31],15 MFI
same,fluorescence intensity,[10]; [24],14.5 MFI
same,fluorescence intensity,[10]; [25],18.8 MFI
same,fluorescence intensity,[10]; [26],38.5 MFI
same,fluorescence intensity,[10]; [27],276 MFI
same,fluorescence intensity,[11]; [28],12 MFI
same,fluorescence intensity,[11]; [29],13.2 MFI
same,fluorescence intensity,[11]; [30],11.5 MFI
same,fluorescence intensity,[11]; [31],13 MFI
same,fluorescence intensity,[11]; [24],12 MFI
same,fluorescence intensity,[11]; [25],13.5 MFI
same,fluorescence intensity,[11]; [26],13.5 MFI
same,fluorescence intensity,[11]; [27],21.5 MFI
same,fluorescence intensity,[12]; [28],19.5 MFI
same,fluorescence intensity,[12]; [29],20 MFI
same,fluorescence intensity,[12]; [30],19.5 MFI
same,fluorescence intensity,[12]; [31],17.8 MFI
same,fluorescence intensity,[12]; [24],21 MFI
same,fluorescence intensity,[12]; [25],24.2 MFI
same,fluorescence intensity,[12]; [26],26 MFI
same,fluorescence intensity,[12]; [27],35.8 MFI
same,fluorescence intensity,[13]; [28],17 MFI
same,fluorescence intensity,[13]; [29],17.5 MFI
same,fluorescence intensity,[13]; [30],15.2 MFI
same,fluorescence intensity,[13]; [31],17.8 MFI
same,fluorescence intensity,[13]; [24],14.2 MFI
same,fluorescence intensity,[13]; [25],17 MFI
same,fluorescence intensity,[13]; [26],21.5 MFI
same,fluorescence intensity,[13]; [27],26 MFI
same,fluorescence intensity,[14]; [28],17.5 MFI
same,fluorescence intensity,[14]; [29],17.5 MFI
same,fluorescence intensity,[14]; [30],17.5 MFI
same,fluorescence intensity,[14]; [31],16.8 MFI
same,fluorescence intensity,[14]; [24],17.5 MFI
same,fluorescence intensity,[14]; [25],19 MFI
same,fluorescence intensity,[14]; [26],22.5 MFI
same,fluorescence intensity,[14]; [27],37.8 MFI
same,fluorescence intensity,[15]; [28],14.8 MFI
same,fluorescence intensity,[15]; [29],15.8 MFI
same,fluorescence intensity,[15]; [30],15.8 MFI
same,fluorescence intensity,[15]; [31],11.5 MFI
same,fluorescence intensity,[15]; [24],15.8 MFI
same,fluorescence intensity,[15]; [25],14.2 MFI
same,fluorescence intensity,[15]; [26],17 MFI
same,fluorescence intensity,[15]; [27],32 MFI
same,fluorescence intensity,[16]; [28],23 MFI
same,fluorescence intensity,[16]; [29],24.5 MFI
same,fluorescence intensity,[16]; [30],24.2 MFI
same,fluorescence intensity,[16]; [31],23.5 MFI
same,fluorescence intensity,[16]; [24],25.2 MFI
same,fluorescence intensity,[16]; [25],24 MFI
same,fluorescence intensity,[16]; [26],31.8 MFI
same,fluorescence intensity,[16]; [27],48.5 MFI
same,fluorescence intensity,[17]; [28],21 MFI
same,fluorescence intensity,[17]; [29],21.2 MFI
same,fluorescence intensity,[17]; [30],21.5 MFI
same,fluorescence intensity,[17]; [31],20.5 MFI
same,fluorescence intensity,[17]; [24],21.5 MFI
same,fluorescence intensity,[17]; [25],21 MFI
same,fluorescence intensity,[17]; [26],23 MFI
same,fluorescence intensity,[17]; [27],29.5 MFI
same,fluorescence intensity,[18]; [28],25.5 MFI
same,fluorescence intensity,[18]; [29],26 MFI
same,fluorescence intensity,[18]; [30],26 MFI
same,fluorescence intensity,[18]; [31],26.8 MFI
same,fluorescence intensity,[18]; [24],24 MFI
same,fluorescence intensity,[18]; [25],28.5 MFI
same,fluorescence intensity,[18]; [26],27 MFI
same,fluorescence intensity,[18]; [27],36.5 MFI
same,fluorescence intensity,[19]; [28],23.5 MFI
same,fluorescence intensity,[19]; [29],22.5 MFI
same,fluorescence intensity,[19]; [30],24.5 MFI
same,fluorescence intensity,[19]; [31],23.8 MFI
same,fluorescence intensity,[19]; [24],27 MFI
same,fluorescence intensity,[19]; [25],23.5 MFI
same,fluorescence intensity,[19]; [26],26.8 MFI
same,fluorescence intensity,[19]; [27],38.5 MFI
same,fluorescence intensity,[20]; [28],30.5 MFI
same,fluorescence intensity,[20]; [29],31 MFI
same,fluorescence intensity,[20]; [30],29.5 MFI
same,fluorescence intensity,[20]; [31],31 MFI
same,fluorescence intensity,[20]; [24],29.8 MFI
same,fluorescence intensity,[20]; [25],33 MFI
same,fluorescence intensity,[20]; [26],35.5 MFI
same,fluorescence intensity,[20]; [27],52.5 MFI
same,fluorescence intensity,[21]; [28],20.5 MFI
same,fluorescence intensity,[21]; [29],20.2 MFI
same,fluorescence intensity,[21]; [30],20 MFI
same,fluorescence intensity,[21]; [31],18.5 MFI
same,fluorescence intensity,[21]; [24],17.5 MFI
same,fluorescence intensity,[21]; [25],22.5 MFI
same,fluorescence intensity,[21]; [26],26.2 MFI
same,fluorescence intensity,[21]; [27],37 MFI
same,fluorescence intensity,[22]; [28],23 MFI
same,fluorescence intensity,[22]; [29],22.5 MFI
same,fluorescence intensity,[22]; [30],24.5 MFI
same,fluorescence intensity,[22]; [31],21.5 MFI
same,fluorescence intensity,[22]; [24],22.5 MFI
same,fluorescence intensity,[22]; [25],25 MFI
same,fluorescence intensity,[22]; [26],31 MFI
same,fluorescence intensity,[22]; [27],43.5 MFI
same,fluorescence intensity,[23]; [28],19 MFI
same,fluorescence intensity,[23]; [29],18 MFI
same,fluorescence intensity,[23]; [30],17 MFI
same,fluorescence intensity,[23]; [31],19 MFI
same,fluorescence intensity,[23]; [24],18.5 MFI
same,fluorescence intensity,[23]; [25],20 MFI
same,fluorescence intensity,[23]; [26],19.5 MFI
same,fluorescence intensity,[23]; [27],32.5 MFI

# For convenience, some entries already given.
binder,measurement,setting,value
B1,fluorescence intensity,[22]; [30],24.5 MFI
same,fluorescence intensity,[22]; [31],21.5 MFI
same,fluorescence intensity,[22]; [24],22.5 MFI
same,fluorescence intensity,[22]; [25],25 MFI
same,fluorescence intensity,[22]; [26],31 MFI
same,fluorescence intensity,[22]; [27],43.5 MFI
same,fluorescence intensity,[23]; [28],19 MFI

# Pulled one by one from the list above (2):
binder,measurement,setting,value
B1,fluorescence intensity,[23]; [31],19 MFI
same,fluorescence intensity,[15]; [27],32 MFI
